Measurements: patent US20230078601A1 (CLEVELAND CLINIC FOUNDATION, published 2023)
Results are given in words; binding and its absence hold for the method and conditions named. Some binding calls cover weakened binding; strength is not graded here. For some of these results: Sequences can lack the tags named with a protein.

Experiments:
[1] = target: T1, recombinant extracellular domain of human AMHR2 (rhAMHR2-ED), C-terminal hexahistidine-tagged fusion protein (human) (UniProt Q16671); test: ELISA
T1 sequence: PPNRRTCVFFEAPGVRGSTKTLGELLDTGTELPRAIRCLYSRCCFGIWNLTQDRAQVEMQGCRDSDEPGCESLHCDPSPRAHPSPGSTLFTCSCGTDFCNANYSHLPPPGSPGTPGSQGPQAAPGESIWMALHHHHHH

10-25 = target: T2, 10-25; test: SPOT peptide array on cellulose membrane, 4D12G1, chemiluminescence
T2 sequence (peptide): FEAPGVRGSTKTLGEL

9-24 = target: T3, 9-24; test: as above
T3 sequence (peptide): FFEAPGVRGSTKTLGE

p20-24 = target: T4, p20-24; test: as above
T4 sequence (peptide): KTLGE

p20-25 = target: T5, p20-25; test: as above
T5 sequence (peptide): KTLGEL

p21-25 = target: T6, p21-25; test: as above
T6 sequence (peptide): TLGEL

p23-38 = target: T7, p23-38; test: as above
T7 sequence (peptide): GELLDTGTELPRAIRC

p24-39 = target: T8, p24-39; test: as above
T8 sequence (peptide): ELLDTGTELPRAIRCL

p25-40 = target: T9, p25-40; test: as above
T9 sequence (peptide): LLDTGTELPRAIRCLY

[2] = target: T1, recombinant extracellular domain of human AMHR2 (rhAMHR2-ED), C-terminal hexahistidine-tagged fusion protein (human); test: competitive ELISA, rhAMHR2-ED in liquid phase against plate-coated rhAMHR2-ED

B1: 4D12G1 mAb (antibody, IgG1, V domains shown)
VH: DVKLVESGGGLVKLGGSLKLSCAASGFTFSRYFMSWVRQTPEKRLELVAAINSDGGRTYYPDTVKGRFTISRDNAKNTLYLQMSSLKSEDTALYYCTRHIYSYYEDYFDYWGQGTTLTVSS
VL: DVVMTQTPLSLPVSLGDQASISCRSSQSLVHSNGNTYLHWYLQKPGQSPKLLIYKVSKRFSGVPDRFSGSGSGTDFTLKISRVEAEDLGVYFCSQSTHVYTFGGGTKLEIK
notes: also called 4D12G1 IgG1 mAb
For B1, the binding [1] was “binds”, the binding (10-25) was “no binding (tested: 1.0 µg/ml)” and the binding (9-24) was “no binding (tested: 1.0 µg/ml)”. For the same binder, the binding (p20-24) was “no binding (tested: 1.0 µg/ml)”, the binding (p20-25) was “no binding (tested: 1.0 µg/ml)” and the binding (p21-25) was “no binding (tested: 1.0 µg/ml)”. For the same binder, the binding (p23-38) was “no binding (tested: 1.0 µg/ml)”, the binding (p24-39) was “no binding (tested: 1.0 µg/ml)” and the binding (p25-40) was “no binding (tested: 1.0 µg/ml)”. The binding [2] was “binds”.
